Measurements from patent US11286304B2, “Anti-galectin-7 antibody, kit comprising the same, and uses thereof” (Academia Sinica, priority 2018, dated 2022).
At least one structure is not confirmed: it was looked up by name or label, or the drawing left a doubt.

Experiments:
[1] = test system: p21; assay: p21 immunoblot analysis in fluvastatin-treated keratinocytes; assay type: cell-based, human; conditions: data not shown
[2] = test system: galectin-7; assay: Galectin-7 expression in keratinocytes (real-time PCR, immunoblot); assay type: cell-based, human; conditions: other statin drugs, data not shown
Method: Human keratinocyte cell line HaCaT was maintained at 37° C. in Dulbecco's modified Eagle's medium (DMEM) supplemented with 10% of fetal bovine serum (FBS), 2 mM glutamine, 100 U/ml penicillin and 100 μg/ml streptomycin. Short hairpin RNA (shRNA) reagents were obtained from the National RNAi Core Facility located at the Institute of Molecular Biology and Genomic Research Center, Academia Sinica, supported by the National Core Facility Program for Biotechnology Grants of NSC. Four shRNAs with clone IDs of TRCN0000057393, TRCN0000057394, TRCN0000057395, and TRCN0000057396 were used to generate stable galectin-7 knockdown HaCaT clones. HaCaT cells were infected with one of the four shRNA-expressing lentiviruses and puromycin was employed to select stable cell clones after 3 days of infection. After puromycin selection, four individual pooled clones were cultured in puromycin-free medium for 2 weeks before further analysis. […]
Cells were harvested and lysed in RIPA lysis buffer containing 1% of Triton X-100 and a protease inhibitor cocktail, and total protein concentrations were measured with a protein assay kit. Proteins in the samples of the lysates with the same amounts of total protein were separated by sodium dodecyl sulfate polyacrylamide gel electrophoresis (SDS-PAGE) and analyzed by immunoblotting. […] Protein quantification was performed by software. […]

| Structure (SMILES) | p21 expression [1] | galectin-7 expression [2] |
| --- | --- | --- |
| CC(C)n1c(/C=C/C(O)CC(O)CC(=O)O)c(-c2ccc(F)cc2)c2ccccc21 (centres unmarked) [fluvastatin] | p21 overexpression |  |
| CCC(C)(C)C(=O)O[C@H]1C[C@@H](C)C=C2C=C[C@H](C)[C@H](CC[C@@H]3C[C@@H](O)CC(=O)O3)[C@H]21 [simvastatin] |  | induced galectin-7 expression |
